Laboratory results reported in PubChem BioAssay AID328 (DTP/NCI, 2004).
The list does not hold the whole screen: it gathers tests that were run many times, whatever their T/C, doses with no T/C, and many T/C values between a quarter and a half above the control. Further doses and runs are listed elsewhere. T/C is the treated group as % of the vehicle group. Some entries give survivors of the animals treated and no T/C: the source holds a T/C of zero for them, seemingly a mark for toxic or unscored doses. Some doses without a T/C left all or most animals alive at the check, yet need not have been tolerated: the source hardly ever lists a survival T/C far under the control, and the zero likely stands for such cases as well. Counts of survivors are from the toxicity check (mostly the fifth day) where no day follows; animals may have died later. Schedules are NCI's codes, taken here to give the interval after Q, in days (D) or hours (H), and the number of doses after X. Where survival is the endpoint, the PubChem record calls one and a half times the control and up active, and a quarter to a half above the control has no call in these data; cut-offs in other NCI protocols can differ. Some T/C values are followed by the survivors on the day toxicity was checked, most often the fifth; where none is given, no animal had died by that day. Some entries were tested several times; the results are listed from low to high.

Test system: BDF1 mice, P388 leukemia ip, median survival T/C
Experiment: NCI In Vivo Anticancer Drug Screen. Data for tumor model P388 Leukemia (intraperitoneal) in B6D2F1 (BDF1) mice
Conditions: T/C endpoint: median survival time, higher T/C = longer survival
Summary of the method: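 Each value expresses how treatment altered survival: treated-mouse outcome over vehicle-mouse outcome, both groups bearing the transplanted tumour.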

[1] = dose: 400.0 mg/kg/injection, schedule: Q01DX009 (ip), vehicle: saline with Tween-80
[2] = dose: 200.0 mg/kg/injection, schedule: Q04DX003 (ip), vehicle: Klucel (hydroxypropylcellulose) (HPC)
[3] = dose: 400.0 mg/kg/injection, schedule: Q04DX003 (ip), vehicle: Klucel (hydroxypropylcellulose) (HPC)
[4] = dose: 400.0 mg/kg/injection, schedule: Q04DX003 (ip), vehicle: saline with Tween-80
[5] = dose: 200.0 mg/kg/injection, schedule: Q04DX003 (ip), vehicle: saline
[6] = dose: 200.0 mg/kg/injection, schedule: Q01DX009 (ip), vehicle: Klucel (hydroxypropylcellulose) (HPC)
[7] = dose: 400.0 mg/kg/injection, schedule: Q04DX003 (ip), vehicle: saline

For `[O-]c1on[n+](C2CCCCC2)c1-c1ccccc1`, the survivor count [1] was 6 of 6.

In the case of `CC[C@]1(O)CC(OC2CC(N(C)C)C(O)C(C)O2)c2c(cc3c(c2O)C(=O)c2c(O)cccc2C3=O)[C@@H]1C(=O)OC` (some centres undefined), the survivor count (dose: 5.0 mg/kg/injection, schedule: Q01DX001 (ip), vehicle: saline) is reported as 3 of 6.

For `O=C1N[C@@H]([C@H]2CC[C@H](Cl)CN2)C(=O)N[C@H]1[C@H]1CC[C@H](Cl)CN1`, the T/C (dose: 0.05 mg/kg/injection, schedule: Q01DX010 (ip), vehicle: saline) was 136 % of control, the T/C (dose: 1.25 mg/kg/injection, schedule: Q01DX001 (ip), vehicle: saline) was 140 % of control and the T/C (dose: 4.4 mg/kg/injection, schedule: Q01DX001 (ip), vehicle: saline) was 142, 158, 172, 213, 237, 241, 272 % of control. For the same compound, the T/C (dose: 6.7 mg/kg/injection, schedule: Q01DX001 (ip), vehicle: saline) was 200, 206, 245, 255, 262, 283, 285 % of control, the T/C (dose: 10.0 mg/kg/injection, schedule: Q01DX001 (ip), vehicle: saline, evaluated on day 30) was 272 % of control and the T/C (dose: 10.0 mg/kg/injection, schedule: Q01DX001 (ip), vehicle: saline, evaluated on day 60) was 194, 232, 302 [9 of 10 alive], 315 [9 of 10 alive], 362, 505, 532 % of control.

In the case of `CN(C)c1ccc(P(c2ccc(N(C)C)cc2)c2ccc(N(C)C)cc2)cc1`, the survivor count (dose: 12.5 mg/kg/injection, schedule: Q01DX009 (ip), vehicle: Klucel (hydroxypropylcellulose) (HPC)) is reported as 6 of 6, the survivor count (dose: 25.0 mg/kg/injection, schedule: Q01DX009 (ip), vehicle: Klucel (hydroxypropylcellulose) (HPC)) is reported as 6 of 6 and the survivor count (dose: 50.0 mg/kg/injection, schedule: Q01DX009 (ip), vehicle: Klucel (hydroxypropylcellulose) (HPC)) is reported as 5 of 6. The survivor count (dose: 100.0 mg/kg/injection, schedule: Q04DX003 (ip), vehicle: Klucel (hydroxypropylcellulose) (HPC)) was 6 of 6, the survivor count [2] was 6 of 6 and the survivor count [3] was 6 of 6.

For `CCOC(=O)C(Cc1ccccc1)P(=O)(OCC)OCC` (centres undefined), the survivor count [1] was 2 of 6.

For `N#Cc1cnc2nc1NCCCCCCC2`, the survivor count (dose: 200.0 mg/kg/injection, schedule: Q04DX003 (ip), vehicle: saline with Tween-80) was 5 of 6 and the survivor count [4] was 1 of 6.

In the case of `CC1CN(c2ccc([N+](=O)[O-])cc2)C(C)CN1` (centres undefined), the survivor count [5] is reported as 2 of 6.

`CN=C(NC)c1ccc(NC(=O)/C=C\c2ccc(C(=O)Nc3ccc(C(=NC)NC)cc3)cc2)cc1` was tested, and the T/C (dose: 0.22 mg/kg/injection, schedule: Q01DX009 (ip), vehicle: saline with Tween-80) was 126 % of control, the T/C (dose: 0.33 mg/kg/injection, schedule: Q01DX009 (ip), vehicle: saline with Tween-80) was 145 % of control and the T/C (dose: 0.44 mg/kg/injection, schedule: Q01DX009 (ip), vehicle: saline with Tween-80) was 134 % of control. For the same compound, the T/C (dose: 0.66 mg/kg/injection, schedule: Q01DX009 (ip), vehicle: saline with Tween-80) was 149 % of control, the T/C (dose: 1.0 mg/kg/injection, schedule: Q01DX009 (ip), vehicle: saline with Tween-80) was 149 % of control and the T/C (dose: 3.0 mg/kg/injection, schedule: Q04DX003 (ip), vehicle: saline with Tween-80) was 125 % of control.

With `CC(=O)Nc1ccc(N=Nc2ccccc2)cc1F` the T/C [6] was 140 % of control.

`CCS(=O)(=O)OCCCl` was tested, and the survivor count (dose: 66.0 mg/kg/injection, schedule: Q01DX009 (ip), vehicle: saline) was 6 of 6, the T/C (dose: 150.0 mg/kg/injection, schedule: Q01DX009 (ip), vehicle: saline) was 136 % of control [5 of 6 alive] and the survivor count [6] was 2 of 6. The survivor count (dose: 200.0 mg/kg/injection, schedule: Q01DX009 (ip), vehicle: saline) was 4 of 6 and the survivor count [7] was 0 of 6.

For `CC(C)=CCC/C(C)=C/Cn1cnc2c(ncn2C2OC(CO)C(O)C2O)c1=O` (centres undefined), the survivor count (dose: 100.0 mg/kg/injection, schedule: Q04DX003 (ip), vehicle: saline) was 5 of 6, the survivor count [5] was 2 of 6 and the survivor count [7] was 0 of 6.

`Cc1c(Cc2ccccc2)[n+](=O)c2ccccc2n1[O-]` was tested, and the T/C [3] was 125 % of control.

`Cc1cc(C)[n+](C)c2cc3ccccc3cc12` was tested, and the T/C (dose: 25.0 mg/kg/injection, schedule: Q01DX005 (ip), vehicle: saline with Tween-80) was 126 % of control and the survivor count (dose: 100.0 mg/kg/injection, schedule: Q01DX005 (ip), vehicle: saline with Tween-80) was 2 of 5.

`c1ccc(C2OC2c2ccccc2)cc1` (centres undefined) was tested, and the survivor count [2] was 5 of 6.

`C[n+]1c(/C=N/NC(N)=S)ccc2ccccc21` was tested, and the T/C (dose: 12.5 mg/kg/injection, schedule: Q01DX009 (ip), vehicle: saline with Tween-80) was 141 % of control.

`CSc1ncc(C)c[n+]1-c1ccccc1` was tested, and the survivor count (dose: 200.0 mg/kg/injection, schedule: Q04DX002 (ip), vehicle: saline with Tween-80) was 3 of 6.

With `CCCCNC(C)(C)C(SC(C)=O)c1ccc(Cl)cc1` (centres undefined) the survivor count [4] was 3 of 6.

`Cc1nc(Br)c2cnccn12` was tested, and the survivor count (dose: 50.0 mg/kg/injection, schedule: Q01DX009 (ip), vehicle: saline) was 2 of 6.

For `CCSC(C(OC(C)=O)C(OC(C)=O)C(OC(C)=O)C(COC(C)=O)OC(C)=O)n1cnc2c(=S)nc[nH]c21` (centres undefined), the survivor count (dose: 50.0 mg/kg/injection, schedule: Q01DX005 (ip), vehicle: saline with Tween-80) was 6 of 6.

With `COc1ccc2c(c[n+](C)c3c4cc5c(cc4ccc23)OCO5)c1OC` the survivor count (dose: 20.0 mg/kg/injection, schedule: Q01DX010 (ip), vehicle: saline) was 0 of 6 and the survivor count (dose: 40.0 mg/kg/injection, schedule: Q01DX010 (ip), vehicle: saline) was 0 of 6.

For `CCCOP(=S)(N1CC1C)N1CC1(C)C` (centres undefined), the T/C (dose: 66.0 mg/kg/injection, schedule: Q04DX003 (ip), vehicle: saline with Tween-80) was 145 % of control and the survivor count [4] was 4 of 6.

In the case of `CC1=CC(C)(C)Nc2ccc(CSc3ccccc3)cc21`, the survivor count (dose: 400.0 mg/kg/injection, schedule: Q01DX009 (ip), vehicle: saline + alcohol) is reported as 0 of 6.

With `Nc1ccc(O)cc1` the survivor count (dose: 600.0 mg/kg/injection, schedule: Q01DX009 (ip), vehicle: saline sonified) was 1 of 6.

With `CO[C@H]1C[C@H](O[C@H]2CC[C@@]3(C)[C@H](CC[C@@H]4[C@@H]3CC[C@]3(C)[C@@H](C5=CC(=O)OC5)CC[C@]43O)C2)O[C@H](C)[C@H]1O` the survivor count (dose: 14.0 mg/kg/injection, schedule: Q01DX009 (ip), vehicle: saline with Tween-80) was 3 of 4.
